Assay results from patent US5216124A (G. D. Searle & Co., priority 1991, dated 1993).

Assay: general procedure: Boc solid-phase peptide synthesis; Merrifield resin (C-terminal acid); pMBHA resin (C-terminal amide)
Conditions: monohydrochloride (solution-phase products); for final HPLC purity: analytical HPLC

2,3,6-trimethyltyrosyl-D-cysteinyl-L-phenylalanyl-3-mercapto-D-valine, cyclic (2→4)-disulfide, monohydrochloride [Example 82 A]
final HPLC purity (whole synthesis): greater than 98% pure

2,3,6-trimethyltyrosyl-D-cysteinyl-L-phenylalanyl-3-mercapto-D-valine, cyclic (2→4)-disulfide, monohydrochloride [Example 82 B]
final HPLC purity (whole synthesis): greater than 98% pure

2,6-dimethyl-L-tyrosyl-D-cysteinyl-3-(2-thienyl)-L-alanyl-3-mercapto-D-valine, cyclic (2→4)-disulfide, methyl ester, monohydrochloride
step yield (late stage modification step): 92.6%

2,6-dimethyl-L-tyrosyl-D-cysteinyl-3-cyclohexyl-L-alanyl-3-mercapto-D-valine, cyclic (2→4)-disulfide, methyl ester, monohydrochloride
step yield (late stage modification step): 97.2%

2,6-dimethyl-L-tyrosyl-D-cysteinyl-3-cyclohexyl-N-methyl-L-alanyl-3-mercapto-D-valine, cyclic (2→4)-disulfide, methyl ester, monohydrochloride
step yield (late stage modification step): 94.9%

2,6-dimethyl-L-tyrosyl-D-cysteinyl-N-methyl-L-phenylalanyl-3-mercapto-D-valine, cyclic (2→4)-disulfide, methyl ester, monohydrochloride
step yield (late stage modification step): 92.5%

3-hydroxy-2,4-dimethylphenylalanyl-D-cysteinyl-L-phenylalanyl-3-mercapto-D- valine, cyclic (2→4)-disulfide, monohydrochloride [Example 81 A]
final HPLC purity (whole synthesis): greater than 97% pure

3-hydroxy-2,4-dimethylphenylalanyl-D-cysteinyl-L-phenylalanyl-3-mercapto-D- valine, cyclic (2→4)-disulfide, monohydrochloride [Example 81 B]
final HPLC purity (whole synthesis): greater than 97% pure

N-[3-cyclohexyl-N-methyl-N-[N-[N-[(1,1-dimethylethoxy)carbonyl]-2,6-dimethyl-L-tyrosyl]-S-(triphenylmethyl)-D-cysteinyl]-L-alanyl]-3-mercapto-D-valine, methyl ester
step yield (coupling step): 97.7%

N-[(1,1-dimethylethoxy)carbonyl]-2,6-dimethyl-L-tyrosyl-D-cysteinyl-3-cyclohexyl-L-alanyl-3-mercapto-D-valine, cyclic (2→4)-disulfide, methyl ester
oxidative folding yield (oxidative folding step): 22.4%

N-[(1,1-dimethylethoxy)carbonyl]-2,6-dimethyl-L-tyrosyl-D-cysteinyl-4-chloro-L-phenylalanyl-3-mercapto-D-valine, cyclic (2→4)-disulfide, methyl ester
oxidative folding yield (oxidative folding step): 40.6%

N-[(1,1-dimethylethoxy)carbonyl]-2,6-dimethyl-L-tyrosyl-D-cysteinyl-4-phenyl-L-2-aminobutanoyl-3-mercapto-D-valine, cyclic (2→4)-disulfide, methyl ester
oxidative folding yield (oxidative folding step): 13%

N-[N-[N-[N-[(1,1-dimethylethoxy)carbonyl]-2,6-dimethyl-L-tyrosyl]-S-(triphenylmethyl)-D-cysteinyl]-L-phenylalanyl]-3-mercapto-D-valine, methyl ester
step yield (coupling step): 98%

N-[N-[N-[N-[(1,1-dimethylethoxy)carbonyl]-2,6-dimethyl-L-tyrosyl]-S-(triphenylmethyl)-cysteinyl]-N-methyl-L-phenylalanyl]-3-mercapto-D-valine, methyl ester
step yield (coupling step): 93.8%

PEPTIDE1{[Dmt].[dC].F.[D-Pen]}$PEPTIDE1,PEPTIDE1,2:R3-4:R3$$$V2.0
final HPLC purity (oxidative folding step): greater than 99% pure

Strings that start with PEPTIDE1 are HELM notation: dots part the residues, brackets hold end groups and non-standard residues.
